Reference: PMC11988680
These are yes or no findings as the source states them, for the method shown. Binding seen in cells or lysates may run through a third protein. Some entries that bind do so weakly or less than the wild type.

Biological target: T1, atypical protein kinase C iota (PKC-ι) (human (endogenous in HEY-T30 and ES-2)) (UniProt P41743)
T1 sequence: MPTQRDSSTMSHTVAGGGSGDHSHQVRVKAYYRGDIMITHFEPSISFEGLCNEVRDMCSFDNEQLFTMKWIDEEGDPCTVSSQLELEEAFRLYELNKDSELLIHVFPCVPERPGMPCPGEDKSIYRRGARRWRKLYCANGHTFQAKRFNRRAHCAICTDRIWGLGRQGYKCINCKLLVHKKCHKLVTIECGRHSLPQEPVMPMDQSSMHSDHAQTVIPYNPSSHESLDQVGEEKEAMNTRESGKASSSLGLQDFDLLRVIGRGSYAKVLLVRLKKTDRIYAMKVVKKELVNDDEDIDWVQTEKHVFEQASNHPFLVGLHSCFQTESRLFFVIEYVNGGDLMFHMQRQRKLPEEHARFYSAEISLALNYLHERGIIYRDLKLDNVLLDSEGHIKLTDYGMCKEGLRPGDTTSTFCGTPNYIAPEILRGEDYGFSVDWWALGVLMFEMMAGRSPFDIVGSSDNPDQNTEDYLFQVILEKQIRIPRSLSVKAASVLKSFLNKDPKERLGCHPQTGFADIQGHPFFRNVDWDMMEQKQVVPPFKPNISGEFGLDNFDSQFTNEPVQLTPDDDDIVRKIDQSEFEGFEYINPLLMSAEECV
Assay: co-IP; PKC-ι immunoprecipitated from 1000 µg of protein sample of each cell line with agarose-conjugated PKC-ι-specific antibody, overnight gentle rocking; pellet blotted with p53 antibody; beads without protein sample as negative control

In the case of “wild-type p53 (WTp53) (from UniProt P04637 1-393)”, the binding is reported as “binds”.
